Measurements from publication doi:10.1101/2025.06.30.662394.
Where two headings read alike, the source gives them in different places. Results are given in words; binding and its absence hold for the method and conditions named. In cells and extracts the contact can be indirect. A yes stands for co-enrichment or nearness to the bait. Other partners may have been found. Tags and fused reporters may be left off the sequences shown.

Protein sequences, listed by entry. Tags and fused reporters are not part of them.
UniProt Q9BYB0: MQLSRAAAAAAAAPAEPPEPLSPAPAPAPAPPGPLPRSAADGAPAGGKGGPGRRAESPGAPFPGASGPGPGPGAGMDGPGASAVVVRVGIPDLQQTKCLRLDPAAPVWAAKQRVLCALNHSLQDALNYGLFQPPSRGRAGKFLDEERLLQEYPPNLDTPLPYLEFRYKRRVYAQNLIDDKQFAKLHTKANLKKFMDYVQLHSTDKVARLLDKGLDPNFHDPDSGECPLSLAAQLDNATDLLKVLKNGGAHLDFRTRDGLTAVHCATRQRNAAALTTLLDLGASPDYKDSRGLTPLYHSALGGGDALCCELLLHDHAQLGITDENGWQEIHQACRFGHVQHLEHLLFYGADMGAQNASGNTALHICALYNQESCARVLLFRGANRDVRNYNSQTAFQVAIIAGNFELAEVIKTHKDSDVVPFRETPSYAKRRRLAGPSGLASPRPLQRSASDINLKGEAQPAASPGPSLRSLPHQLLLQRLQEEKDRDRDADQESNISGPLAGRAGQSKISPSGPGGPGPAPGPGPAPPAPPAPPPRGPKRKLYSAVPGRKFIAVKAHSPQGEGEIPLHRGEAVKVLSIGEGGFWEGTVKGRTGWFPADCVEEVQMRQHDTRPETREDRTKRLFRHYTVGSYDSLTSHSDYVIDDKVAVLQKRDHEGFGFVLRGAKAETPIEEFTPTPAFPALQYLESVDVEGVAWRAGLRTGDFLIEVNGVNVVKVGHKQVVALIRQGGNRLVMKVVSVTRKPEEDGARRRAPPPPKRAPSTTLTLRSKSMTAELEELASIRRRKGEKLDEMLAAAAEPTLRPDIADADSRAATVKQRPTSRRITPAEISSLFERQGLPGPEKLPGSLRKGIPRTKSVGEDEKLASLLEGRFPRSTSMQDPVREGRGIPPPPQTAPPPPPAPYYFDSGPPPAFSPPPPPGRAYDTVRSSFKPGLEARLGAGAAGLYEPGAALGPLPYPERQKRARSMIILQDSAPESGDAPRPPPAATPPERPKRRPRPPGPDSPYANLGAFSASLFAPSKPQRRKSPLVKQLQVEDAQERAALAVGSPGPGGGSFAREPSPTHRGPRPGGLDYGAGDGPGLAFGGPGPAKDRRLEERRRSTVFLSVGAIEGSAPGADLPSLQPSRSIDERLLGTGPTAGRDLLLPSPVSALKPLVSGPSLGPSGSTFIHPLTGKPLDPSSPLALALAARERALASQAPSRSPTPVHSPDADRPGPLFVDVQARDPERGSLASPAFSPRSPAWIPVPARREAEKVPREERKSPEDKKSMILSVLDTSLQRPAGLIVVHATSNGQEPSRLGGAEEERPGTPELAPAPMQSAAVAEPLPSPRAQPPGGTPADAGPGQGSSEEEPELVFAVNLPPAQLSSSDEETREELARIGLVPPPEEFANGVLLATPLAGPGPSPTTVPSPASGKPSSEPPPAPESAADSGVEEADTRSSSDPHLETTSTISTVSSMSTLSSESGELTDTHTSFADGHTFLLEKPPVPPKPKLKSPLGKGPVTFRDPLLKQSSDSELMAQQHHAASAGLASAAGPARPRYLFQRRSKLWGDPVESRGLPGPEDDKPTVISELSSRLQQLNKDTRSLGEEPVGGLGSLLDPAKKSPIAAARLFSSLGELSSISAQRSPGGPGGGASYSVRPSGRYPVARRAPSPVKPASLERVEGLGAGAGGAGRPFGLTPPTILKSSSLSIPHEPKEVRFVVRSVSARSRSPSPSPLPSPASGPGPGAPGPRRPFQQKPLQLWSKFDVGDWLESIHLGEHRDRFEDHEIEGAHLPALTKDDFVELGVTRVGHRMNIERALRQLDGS

T1: Lphn2-APEX2 fusion protein (UniProt O95490)
T1 sequence: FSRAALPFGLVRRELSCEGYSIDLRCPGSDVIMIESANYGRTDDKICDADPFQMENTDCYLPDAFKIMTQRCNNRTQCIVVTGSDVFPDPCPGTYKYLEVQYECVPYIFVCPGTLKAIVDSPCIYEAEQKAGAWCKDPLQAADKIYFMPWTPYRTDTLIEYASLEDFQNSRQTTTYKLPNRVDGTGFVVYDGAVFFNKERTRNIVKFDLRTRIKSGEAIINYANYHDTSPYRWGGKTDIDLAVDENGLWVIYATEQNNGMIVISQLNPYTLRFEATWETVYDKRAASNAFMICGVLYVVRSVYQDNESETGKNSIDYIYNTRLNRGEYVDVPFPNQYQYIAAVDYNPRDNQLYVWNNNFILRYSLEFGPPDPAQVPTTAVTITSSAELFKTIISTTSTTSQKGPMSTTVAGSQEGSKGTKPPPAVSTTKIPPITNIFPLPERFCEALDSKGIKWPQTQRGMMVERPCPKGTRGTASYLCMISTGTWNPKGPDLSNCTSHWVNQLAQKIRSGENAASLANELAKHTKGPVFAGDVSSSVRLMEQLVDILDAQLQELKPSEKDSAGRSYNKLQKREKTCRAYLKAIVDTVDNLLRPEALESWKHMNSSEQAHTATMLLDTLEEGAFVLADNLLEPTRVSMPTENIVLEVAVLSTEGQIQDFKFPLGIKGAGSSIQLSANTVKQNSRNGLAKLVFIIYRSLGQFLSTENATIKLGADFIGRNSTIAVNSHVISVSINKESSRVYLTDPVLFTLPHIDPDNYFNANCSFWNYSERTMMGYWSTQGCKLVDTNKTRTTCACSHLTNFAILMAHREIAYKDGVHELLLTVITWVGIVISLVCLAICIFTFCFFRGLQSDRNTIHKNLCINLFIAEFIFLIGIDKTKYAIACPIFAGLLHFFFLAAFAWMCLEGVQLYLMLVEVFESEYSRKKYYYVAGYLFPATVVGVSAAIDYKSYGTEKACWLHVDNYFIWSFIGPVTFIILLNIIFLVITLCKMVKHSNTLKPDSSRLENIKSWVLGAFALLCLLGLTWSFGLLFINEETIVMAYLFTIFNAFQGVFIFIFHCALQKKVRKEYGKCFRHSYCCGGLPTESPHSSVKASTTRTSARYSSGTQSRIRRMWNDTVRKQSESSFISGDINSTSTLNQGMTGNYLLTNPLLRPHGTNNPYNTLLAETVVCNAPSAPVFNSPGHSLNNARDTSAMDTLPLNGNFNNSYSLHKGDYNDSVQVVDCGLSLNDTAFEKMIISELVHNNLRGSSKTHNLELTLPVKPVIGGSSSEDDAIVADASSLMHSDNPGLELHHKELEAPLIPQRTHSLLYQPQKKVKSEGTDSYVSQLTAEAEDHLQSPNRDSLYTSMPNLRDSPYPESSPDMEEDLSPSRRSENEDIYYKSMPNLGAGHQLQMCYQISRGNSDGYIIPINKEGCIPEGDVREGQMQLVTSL


Assays:
[1] = biological target: T1, Lphn2-APEX2 fusion protein; assay: proximity labelling
[2] = biological target: T1, Lphn2-APEX2 fusion protein; assay: proximity labelling; remark: listed apart in the source

| binding [1] | binding [2] | Molecule |
| --- | --- | --- |
| binds |  | Shank3 (endogenous) (from UniProt Q9BYB0 1-1806) |
|  | binds | Endoglin (endogenous) (receptor, UniProt P17813 26-658) ETVHCDLQPVGPERGEVTYTTSQVSKGCVAQAPNAILEVHVLFLEFPTGPSQLELTLQASKQNGTWPREVLLVLSVNSSVFLHLQALGIPLHLAYNSSLVTFQEPPGVNTTELPSFPKTQILEWAAERGPITSAAELNDPQSILLRLGQAQGSLSFCMLEASQDMGRTLEWRPRTPALVRGCHLEGVAGHKEAHILRVLPGHSAGPRTVTVKVELSCAPGDLDAVLILQGPPYVSWLIDANHNMQIWTTGEYSFKIFPEKNIRGFKLPDTPQGLLGEARMLNASIVASFVELPLASIVSLHASSCGGRLQTSPAPIQTTPPKDTCSPELLMSLIQTKCADDAMTLVLKKELVAHLKCTITGLTFWDPSCEAEDRGDKFVLRSAYSSCGMQVSASMISNEAVVNILSSSSPQRKKVHCLNMDSLSFQLGLYLSPHFLQASNTIEPGQQSFVQVRVSPSVSEFLLQLDSCHLDLGPEGGTVELIQGRAAKGNCVSLLSPSPEGDPRFSFLLHFYTVPIPKTGTLSCTVALRPKTGSQDQEVHRTVFMRLNIISPDLSGCTSKGLVLPAVLGITFGAFLIGALLTAALWYIYSHTRSPSKREPVVAVAAPASSESSSTNHSIGSTQSTPCSTSSMA |
